The source of these data is PubChem BioAssay AID2685 (National Center for Advancing Translational Sciences (NCATS), 2010).

This test in a line: qHTS Assay for Lipid Storage Modulators in Drosophila S3 Cells.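 As to cell number change: cells counted by Cell Tracker Red CMTPX staining in the red channel.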 To be noted: BODIPY lipid droplet fluorescence, 18-24 h; for cell number change: measured here: cell count max response, cells fed with added oleic acid. The essentials: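 Laser-scanning cytometry quantifies lipid droplet accumulation (500–530 nm total intensity; droplet/cell object ratio) in oleic acid-fed (400 uM added) Drosophila S3 cells treated with a concentration series. 20 uM Triacsin C defined 100% inhibition.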

[1] abbreviates: measured here: cell number channel AC50, cells fed with added oleic acid.
[2] abbreviates: measured here: lipid fluorescence (Fed channel) AC50, cells fed with added oleic acid.

Each structure is given as a SMILES string. Some of the results follow. Further columns of the screen follow, without active or inactive calls. Most of these compounds were active or inconclusive in the main read-out, so they are no random draw. Potencies come from curve fits of mixed quality, noted in brackets.

For `C/C(=N\Nc1nc2ccccc2[nH]1)c1ccc(Cl)s1`, the cell number change was -6.51%. Same read-out and setting: as for `Cc1ccccc1CNC(=O)C1CCCN(c2nnc(C)c3c(C)n(-c4ccccc4)nc23)C1` (stereo not drawn), the figure is 8.87%. The term AC50 denotes the concentration giving half of the maximal activity seen. A higher AC50 goes with weaker potency. On to `CCn1cc(C(=O)NCc2ccc3c(c2)OCO3)c(=O)c2cc(S(=O)(=O)N(C)C)ccc21`, for which the cell number change is -31.9%. Further, the AC50 under setting [1] is 23.1 µM [falling, single point]. The AC50 under setting [2] was 16.4 µM [falling, partial curve].

As for `CCCN(C(=O)COC(=O)c1[nH]c(C)c(C(=O)OC)c1C)c1c(N)n(Cc2ccccc2)c(=O)[nH]c1=O`, the cell number change was 38.6%. In addition, the AC50 under setting [1] is 5.17 µM [rising, partial curve]. In the case of `O=c1c2ccccc2nc2n1CCCN2`, the AC50 under setting [2] is 0.116 µM [falling, full curve, poor fit].

On to `C=C(Br)Cn1c(CC(C)C)nc2ccccc21`, for which the cell number change worked out at 3.67%. Besides, under setting [2], the AC50 was 3.66 µM [rising, partial curve]. In the case of `OCCCN=c1cc(-c2ccccc2)oc2ccc(Cl)cc12`, the cell number change was -35.8%. The half-maximal activity concentration (AC50) under setting [1] was 29.1 µM [falling, single point]. Consider `CCN1CCN(Cc2c(C(=O)N/N=C(\C)c3ccc(Cl)cc3)nnn2-c2nonc2N)CC1`, for which the cell number change is 0.855%. Also, the AC50 under setting [2] is 7.31 µM [falling, single point]. `O=C(c1ccccc1F)N(Cc1ccccc1)Cc1ccccc1`: the cell number change was 18.9%. For the same molecule, under setting [2], the AC50 was 6.51 µM [rising, single point]. On to `N#Cc1c(NCc2ccccc2)ccnc1NCc1cccnc1`, for which the cell number change is -18.7%. Also, the concentration at half-maximal activity (AC50) under setting [2] was 29.1 µM [falling, single point]. On to `Cc1csc(SCC(=O)NCCc2ccc(Cl)cc2)n1`, for which the cell number change is 50.1%. Besides, under setting [1], the AC50 is 6.51 µM [falling, single point]. Under setting [2], the AC50 is 3.66 µM [falling, single point]. For `CC(=O)c1ccc(OCC(=O)N2CCCC(Nc3ccc(C)c(C)c3)C2)cc1` (stereo not drawn), the cell number change turned out to be 10.3%. Further, under setting [1], the AC50 was 0.0651 µM [rising, full curve, poor fit]. In the case of `Cc1ccc(N(C(=O)C2CCCC2)C2C=CS(=O)(=O)C2)cc1` (stereo not drawn), the cell number change was -55.8%. For the same molecule, under setting [1], the AC50 was 0.116 µM [falling, single point]. Moreover, the AC50 under setting [2] is 0.731 µM [falling, single point].

With `CC1CC(C)CN(C(=O)COC(=O)c2cccc(S(=O)(=O)N(C)c3ccccc3)c2)C1` (stereo not drawn), the cell number change came to 10.5%.

As for `COC(=O)c1ccc(C)c(NC(=O)Cc2coc3cc(OC)ccc23)c1`, the cell number change is -18.3%. Turning to `Cc1ccc(N2C(=O)CC2(C#N)c2ccc(OCc3ccccc3)cc2)cc1` (stereo not drawn), the AC50 under setting [2] is 6.51 µM [falling, single point]. Regarding `CC1CNc2c(cccc2S(=O)(=O)N[C@@H](CCCN=C(N)N)C(=O)N2CC[C@@H](C)C[C@@H]2C(=O)O)C1` (stereo partly drawn), the AC50 under setting [2] was 0.00411 µM [rising, full curve, poor fit]. Take `COc1ccccc1CCNCc1ccc(OC)c(OCc2ccccc2)c1`: the cell number change was -55.9%. Further, the half-maximal activity concentration (AC50) under setting [1] was 29.1 µM [falling, single point]. For the same molecule, the AC50 under setting [2] was 29.1 µM [falling, single point]. Consider `CS(=O)(=O)CCC(C(=O)OCc1ccc(Cl)cc1)N1C(=O)c2ccccc2C1=O` (stereo not drawn), for which the cell number change worked out at 6.25%. Also, the AC50 under setting [2] was 0.058 µM [rising, full curve, poor fit].

`COc1ccc(NC(=O)c2cccc(S(=O)(=O)N3CCN(c4ccccc4)CC3)c2)c(OC)c1`: the cell number change is -14.1%. Also, under setting [1], the concentration at half-maximal activity (AC50) was 0.00517 µM [falling, full curve, poor fit]. The AC50 under setting [2] is 0.00517 µM [falling, full curve, poor fit]. For the molecule `Cc1c(C(=O)N2CCN(C/C=C/c3ccccc3)CC2)oc2c(F)cccc12`, the cell number change is -0.205%. Besides, under setting [2], the AC50 is 3.66 µM [falling, single point]. As for `Cc1occc1-c1nnc(SCC(=O)NC2CCCC2)n1-c1ccccc1`, the cell number change was found to be 17.6%. The concentration at half-maximal activity (AC50) under setting [2] is 6.51 µM [rising, single point]. On to `CCN(c1ccccc1)S(=O)(=O)c1cccc(C(=O)N(C)CCOc2ccccc2)c1`, for which the AC50 under setting [1] is 6.51 µM [rising, single point]. For `O=C(COc1ccc(Cl)cc1)NC1CC1`, the cell number change stood at 8.67%. As to `O=C(Nc1ccc(Br)cn1)c1ccc(Cl)s1`, the cell number change was 17.8%.

Consider `CC(=O)Nc1ccc(S(=O)(=O)NCC(=O)OCC(=O)NC(=O)C2CCCCC2)cc1`, for which the cell number change is -21.7%. Also, the AC50 under setting [2] is 0.0082 µM [falling, full curve, poor fit]. On to `O=c1c2c(-c3ccco3)csc2nc(SCc2cn3cccnc3n2)n1-c1ccccc1`, for which the cell number change was -3.32%.

In the case of `Cc1ccc(NC(=O)CSc2nc(N)c3c4c(sc3n2)CSC(C)(C)C4)cc1`, the cell number change was -68.9%. Besides, the AC50 under setting [1] is 16.4 µM [falling, partial curve]. For the same molecule, the half-maximal activity concentration (AC50) under setting [2] is 3.66 µM [falling, full curve]. With `Nc1nc(SCc2c(F)cccc2Cl)[nH]c(=O)c1-c1ccccc1`, the cell number change amounted to 2.38%.

Take `Cc1ccc2c(c1)C(c1ccc(O)cc1)(c1ccc(O)cc1)C(=O)N2C`: the cell number change is -17.5%.

With `COc1ccc2c(c1)CC(C1(O)C(=O)N(C)c3ccccc31)C2=O` (stereo not drawn), the cell number change came to 7.18%. Also, the AC50 under setting [2] was 18.4 µM [falling, partial curve]. On to `CCOC(=O)[C@@H]1[C@H]2COc3cc(OC)ccc3[C@@H]2N2C(=O)N(c3cccc(Cl)c3)C(=O)[C@]12C`, for which the cell number change was found to be 16.5%. On to `O=C(CCc1ccccc1)Nc1ccc(S(=O)(=O)Nc2nccs2)cc1`, for which the cell number change stood at 12.2%. Moreover, the AC50 under setting [2] is 29.1 µM [falling, single point]. In the case of `O=C(COc1ccc(S(=O)(=O)N2CCOCC2)cc1)NCC1CCCO1` (stereo not drawn), the cell number change is -6.91%. Moreover, the AC50 under setting [2] was 0.731 µM [falling, partial curve, poor fit]. For the molecule `O=C(NCCc1ccccc1)c1cccs1`, the cell number change turned out to be 10.8%. Take `COc1ccccc1C(=O)NC(=O)COC(=O)CCOc1cc(C)ccc1C`: the cell number change came out at 2.21%. In addition, under setting [2], the AC50 is 29.1 µM [rising, single point]. With `Cc1cc(C(F)(F)F)nn1CC(=O)NNC(=S)NCC(C)C`, the cell number change amounted to 2.24%. Further, under setting [1], the AC50 was 6.51 µM [falling, single point]. Regarding `CCOC(=O)C1=C(C)NC(=O)NC1c1c(OC)ccc2ccccc12` (stereo not drawn), the cell number change came to 18.9%. `Cc1ccc(CN(c2ccc(C(=O)Nc3cccnc3)cc2)S(C)(=O)=O)cc1`: the cell number change is 50.9%. For the same molecule, under setting [1], the AC50 is 25.9 µM [rising, partial curve, poor fit]. The AC50 under setting [2] is 4.61 µM [rising, single point]. On to `O=C(Nc1cccc(S(=O)(=O)C(F)F)c1)c1ccc(S(=O)(=O)N2CCCCC2)cc1`, for which the cell number change is -29.2%. For the same molecule, under setting [1], the AC50 was 0.0651 µM [falling, full curve, poor fit]. In the case of `COc1ccc(-c2ccc(-c3nc4ccc(C)cn4c3NC3CCCCC3)cc2OC)cc1`, the cell number change was -66.6%. For the same molecule, the AC50 under setting [1] was 16.4 µM [falling, single point]. Also, the concentration at half-maximal activity (AC50) under setting [2] was 3.26 µM [falling, single point]. In the case of `CCCN(C(=O)CSc1nnc2ccccn12)C1CCS(=O)(=O)C1` (stereo not drawn), the cell number change is -29.8%. Moreover, the AC50 under setting [2] is 20.6 µM [falling, single point].

Turning to `CCCCn1c(N)c(N(CC)C(=O)c2ccc(Cl)c(Cl)c2)c(=O)[nH]c1=O`, the cell number change worked out at 13.4%. For the molecule `Cc1nc2nc3c(c(=O)n2[nH]1)CCC3`, the cell number change was -55%. Further, the AC50 under setting [1] was 0.103 µM [falling, full curve, poor fit]. In addition, the AC50 under setting [2] is 29.1 µM [falling, single point]. As for `CC(=O)Nc1nn(C)c2nc3cc(C)ccc3cc12`, the cell number change is 9.38%. In addition, under setting [2], the AC50 is 2.91 µM [rising, full curve, poor fit]. For the molecule `CC(C)(C)OC(=O)C1C(=O)CC(C)(O)C(C(=O)OC(C)(C)C)C1c1ccco1` (stereo not drawn), the cell number change was -29.7%. Under setting [2], the AC50 is 16.4 µM [falling, partial curve]. In the case of `CCN(c1ccc(NC(=O)CN2C(=O)NC3(CCOc4ccccc43)C2=O)cc1)C(C)C` (stereo not drawn), the cell number change amounted to 7.4%. Besides, under setting [1], the half-maximal activity concentration (AC50) was 0.651 µM [falling, single point]. The concentration at half-maximal activity (AC50) under setting [2] was 6.51 µM [falling, single point]. Turning to `CC(C)(C)NC(=O)CCN(/N=C/c1ccc([N+](=O)[O-])o1)C1=NS(=O)(=O)c2ccccc21`, the cell number change is -8.07%. The AC50 under setting [2] is 9.2 µM [falling, partial curve]. In the case of `CC(=O)N1CCN(c2ccccc2NC(=O)c2ccc(Br)o2)CC1`, the cell number change was found to be 17.3%. Also, the AC50 under setting [2] was 0.58 µM [rising, single point]. With `CC(=O)ON1C(C)(C)CC(OC(=O)c2ccccc2)CC1(C)C`, the cell number change is -14.4%. Under setting [1], the AC50 was 0.00411 µM [falling, full curve, poor fit]. For `CCc1cccc(NC(=O)CCc2c(C)nn(-c3ccc(N4CCCCC4)nn3)c2C)c1`, the cell number change was -12.2%. With `Cc1ccc(NC(=O)CSc2nc3c(cc2C#N)C(=O)CCC3)cc1S(=O)(=O)N(C)C`, the cell number change was -14.8%. For the molecule `NS(=O)(=O)c1ccc(NC(=O)CN2CCc3ccccc3C2)cc1`, the cell number change was found to be 33.2%. Further, the AC50 under setting [1] was 29.1 µM [rising, partial curve, poor fit]. For the molecule `Cc1ccc(C)c(NC(=O)CN(C)C(=O)c2nn(C)c(=O)c3ccccc23)c1`, the AC50 under setting [2] is 0.146 µM [rising, partial curve, poor fit]. Same read-out and setting: as for `Cc1ccc(N2C(=O)c3ccccc3NC2(C(=O)O)c2ccccc2)cc1Cl` (stereo not drawn), the figure is 29.1 µM [rising, single point].

Regarding `COc1cccc(NC(=O)CCNS(=O)(=O)c2cccc3nonc23)c1`, the cell number change amounted to 15.2%. Moreover, the AC50 under setting [2] was 6.51 µM [falling, single point]. As for `CN(CP(=O)(O)CN(C)S(C)(=O)=O)S(C)(=O)=O`, the cell number change was found to be 30.8%. Further, the AC50 under setting [2] was 20.6 µM [rising, single point]. On to `CC(=O)c1cccc(NC(=O)C(C)OC(=O)Cc2c[nH]c3ccccc23)c1` (stereo not drawn), for which the cell number change is 47.9%. Moreover, the half-maximal activity concentration (AC50) under setting [1] was 9.2 µM [rising, partial curve]. Also, under setting [2], the concentration at half-maximal activity (AC50) is 10.3 µM [rising, partial curve]. For `Cc1ccc(S(=O)(=O)N2CCN(c3cnn(-c4ccccc4)c(=O)c3Cl)CC2)cc1`, the cell number change was -9.24%. Moreover, the AC50 under setting [2] is 0.651 µM [falling, single point]. Turning to `COC(=O)c1ccccc1NC(=O)C(=O)NCc1ccncc1`, the cell number change was determined as 6.37%. Besides, the AC50 under setting [2] was 4.61 µM [rising, full curve, poor fit]. Turning to `C=CCc1ccccc1OCC(O)CNC(=O)c1ccccc1C(=O)O` (stereo not drawn), the cell number change is 31.1%. Also, the AC50 under setting [1] is 2.06 µM [rising, full curve, poor fit]. Further, the AC50 under setting [2] was 20.6 µM [rising, single point].
